This is one part of the list.
Assays:
Test in all cases: log2 fold change, soluble protein after heating vs DMSO (PISA); higher = thermal stabilisation; K562 lysate, 10 uM; active = over 0.2 and 3.5 SD of the protein, either way, in both replicates (recomputed)
lapatinib = compound: CS(=O)(=O)CCNCc1ccc(-c2ccc3ncnc(Nc4ccc(OCc5cccc(F)c5)c(Cl)c4)c3c2)o1 [lapatinib]
Summary of the method: (§1)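 K562 pellets were dounce-homogenised in PBS pH 7.4 with 1 mM MgCl2, and the crude extract at 1 mg/mL protein was treated with 10 μM compound for 30 min. Aliquots were heated for 3 min across 48°C-58°C, pooled, and brought to 0.5% NP-40 at 4°C; soluble protein was the supernatant after 21,000xg for 90 min. Soluble protein was quantified by TMTpro 16plex LC-MS/MS with channel sums equalised, and reported as log2 fold change in thermal stability against DMSO controls, with values from duplicates.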

Chains of the proteins cited; added tags and fusions are not shown. Lines headed by an entry give the natural chain unless they say otherwise; changes in a name come on top.
UniProt Q53TN4: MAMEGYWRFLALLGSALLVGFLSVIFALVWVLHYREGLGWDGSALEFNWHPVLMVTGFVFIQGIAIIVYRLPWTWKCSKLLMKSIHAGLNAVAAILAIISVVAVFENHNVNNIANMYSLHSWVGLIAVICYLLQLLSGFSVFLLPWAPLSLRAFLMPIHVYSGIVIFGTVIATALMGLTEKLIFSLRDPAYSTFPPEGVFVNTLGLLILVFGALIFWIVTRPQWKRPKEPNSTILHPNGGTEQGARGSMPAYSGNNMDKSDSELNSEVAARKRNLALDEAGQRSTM
UniProt Q9NXE8: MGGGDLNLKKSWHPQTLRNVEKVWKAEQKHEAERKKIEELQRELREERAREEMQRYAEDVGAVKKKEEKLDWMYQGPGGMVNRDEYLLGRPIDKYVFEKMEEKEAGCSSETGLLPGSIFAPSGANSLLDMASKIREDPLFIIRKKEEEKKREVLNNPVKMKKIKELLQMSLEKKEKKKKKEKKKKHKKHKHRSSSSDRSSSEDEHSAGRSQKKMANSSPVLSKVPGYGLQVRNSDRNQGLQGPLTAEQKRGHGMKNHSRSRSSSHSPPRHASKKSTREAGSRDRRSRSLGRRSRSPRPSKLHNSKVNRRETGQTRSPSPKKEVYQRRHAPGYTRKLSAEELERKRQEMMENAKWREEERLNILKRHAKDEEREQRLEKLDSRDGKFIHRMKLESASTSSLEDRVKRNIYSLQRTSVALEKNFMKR
UniProt Q9UJA2: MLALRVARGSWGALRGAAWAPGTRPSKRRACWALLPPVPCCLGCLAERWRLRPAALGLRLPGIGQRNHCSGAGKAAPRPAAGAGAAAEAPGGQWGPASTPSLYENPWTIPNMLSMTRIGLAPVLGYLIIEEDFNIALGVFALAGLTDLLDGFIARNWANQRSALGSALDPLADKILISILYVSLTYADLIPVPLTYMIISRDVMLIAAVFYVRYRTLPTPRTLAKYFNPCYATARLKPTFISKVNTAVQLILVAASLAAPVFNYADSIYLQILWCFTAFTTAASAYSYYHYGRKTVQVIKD
UniProt Q6UUV9: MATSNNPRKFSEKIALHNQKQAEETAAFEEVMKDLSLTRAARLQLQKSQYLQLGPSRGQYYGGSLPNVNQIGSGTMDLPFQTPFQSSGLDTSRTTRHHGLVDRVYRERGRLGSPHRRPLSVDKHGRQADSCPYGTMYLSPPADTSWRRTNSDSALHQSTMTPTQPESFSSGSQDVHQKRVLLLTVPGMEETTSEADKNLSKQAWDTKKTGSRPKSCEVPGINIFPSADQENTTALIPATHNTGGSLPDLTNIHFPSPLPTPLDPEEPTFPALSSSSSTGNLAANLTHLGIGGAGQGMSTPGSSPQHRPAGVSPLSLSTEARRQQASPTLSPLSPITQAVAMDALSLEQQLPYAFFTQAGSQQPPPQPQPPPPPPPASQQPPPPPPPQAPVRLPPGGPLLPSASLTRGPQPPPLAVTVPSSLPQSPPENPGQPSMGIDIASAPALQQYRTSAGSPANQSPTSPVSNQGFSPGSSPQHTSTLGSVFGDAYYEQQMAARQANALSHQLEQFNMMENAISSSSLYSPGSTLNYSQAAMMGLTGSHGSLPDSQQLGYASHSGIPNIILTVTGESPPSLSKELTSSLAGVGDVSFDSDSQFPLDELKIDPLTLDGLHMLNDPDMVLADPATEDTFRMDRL
UniProt Q03060: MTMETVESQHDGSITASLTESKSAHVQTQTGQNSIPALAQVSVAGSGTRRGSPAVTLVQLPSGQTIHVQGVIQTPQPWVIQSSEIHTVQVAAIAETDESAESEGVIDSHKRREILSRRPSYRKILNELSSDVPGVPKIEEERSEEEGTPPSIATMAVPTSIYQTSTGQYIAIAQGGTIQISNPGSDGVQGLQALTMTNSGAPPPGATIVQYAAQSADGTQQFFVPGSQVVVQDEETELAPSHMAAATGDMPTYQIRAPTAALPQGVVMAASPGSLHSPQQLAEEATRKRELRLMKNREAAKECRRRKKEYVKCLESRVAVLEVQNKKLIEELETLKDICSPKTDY
UniProt H7BZ55: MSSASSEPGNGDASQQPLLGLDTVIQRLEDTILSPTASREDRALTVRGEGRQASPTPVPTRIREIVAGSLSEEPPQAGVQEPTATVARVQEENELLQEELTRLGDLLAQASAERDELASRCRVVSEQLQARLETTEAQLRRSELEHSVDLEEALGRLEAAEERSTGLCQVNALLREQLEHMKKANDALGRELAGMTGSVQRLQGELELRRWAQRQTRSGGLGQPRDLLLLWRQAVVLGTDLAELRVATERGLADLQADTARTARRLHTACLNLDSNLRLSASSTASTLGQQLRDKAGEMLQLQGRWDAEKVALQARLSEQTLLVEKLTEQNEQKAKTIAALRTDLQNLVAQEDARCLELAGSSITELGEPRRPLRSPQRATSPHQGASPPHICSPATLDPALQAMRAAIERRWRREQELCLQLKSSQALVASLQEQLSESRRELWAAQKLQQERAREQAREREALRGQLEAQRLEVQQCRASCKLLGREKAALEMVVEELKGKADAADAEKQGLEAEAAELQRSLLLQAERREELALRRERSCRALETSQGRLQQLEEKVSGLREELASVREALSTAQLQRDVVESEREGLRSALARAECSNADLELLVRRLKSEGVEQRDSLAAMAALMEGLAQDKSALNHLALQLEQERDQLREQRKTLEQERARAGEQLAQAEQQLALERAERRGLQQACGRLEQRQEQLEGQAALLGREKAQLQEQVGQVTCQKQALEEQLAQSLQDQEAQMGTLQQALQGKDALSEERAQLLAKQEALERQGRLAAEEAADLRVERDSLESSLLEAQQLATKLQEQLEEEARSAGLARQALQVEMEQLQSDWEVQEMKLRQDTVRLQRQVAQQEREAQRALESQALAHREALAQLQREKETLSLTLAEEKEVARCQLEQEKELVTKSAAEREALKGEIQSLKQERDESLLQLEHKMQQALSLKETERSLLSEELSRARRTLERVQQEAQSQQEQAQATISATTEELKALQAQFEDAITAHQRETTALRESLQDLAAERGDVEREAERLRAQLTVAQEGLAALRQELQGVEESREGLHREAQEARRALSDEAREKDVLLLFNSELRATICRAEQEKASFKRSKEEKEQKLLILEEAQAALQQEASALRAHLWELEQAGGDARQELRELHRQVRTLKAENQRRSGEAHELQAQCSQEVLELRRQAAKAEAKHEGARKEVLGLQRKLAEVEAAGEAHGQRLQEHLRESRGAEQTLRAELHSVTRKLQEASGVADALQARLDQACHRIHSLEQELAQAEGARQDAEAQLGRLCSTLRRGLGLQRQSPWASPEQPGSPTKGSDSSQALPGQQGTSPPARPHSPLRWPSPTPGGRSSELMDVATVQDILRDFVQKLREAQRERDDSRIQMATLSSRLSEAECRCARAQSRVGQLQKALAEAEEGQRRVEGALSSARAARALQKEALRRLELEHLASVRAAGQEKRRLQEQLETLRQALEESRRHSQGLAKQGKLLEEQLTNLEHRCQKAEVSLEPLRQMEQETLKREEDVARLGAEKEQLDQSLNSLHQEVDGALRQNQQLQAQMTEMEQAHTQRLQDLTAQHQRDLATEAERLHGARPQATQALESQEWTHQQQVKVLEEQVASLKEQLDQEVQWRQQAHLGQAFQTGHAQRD
UniProt P08311: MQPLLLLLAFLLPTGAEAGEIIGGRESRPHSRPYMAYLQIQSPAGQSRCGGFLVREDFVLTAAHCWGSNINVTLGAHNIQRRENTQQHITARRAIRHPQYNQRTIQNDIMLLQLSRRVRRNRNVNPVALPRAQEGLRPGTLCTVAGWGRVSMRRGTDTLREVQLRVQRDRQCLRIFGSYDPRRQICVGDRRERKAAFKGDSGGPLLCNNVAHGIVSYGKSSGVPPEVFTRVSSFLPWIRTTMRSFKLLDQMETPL
UniProt Q9NSA3: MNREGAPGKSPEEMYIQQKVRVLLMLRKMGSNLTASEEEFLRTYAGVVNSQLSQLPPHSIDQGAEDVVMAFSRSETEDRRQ
UniProt P00167, whole entry, looked up: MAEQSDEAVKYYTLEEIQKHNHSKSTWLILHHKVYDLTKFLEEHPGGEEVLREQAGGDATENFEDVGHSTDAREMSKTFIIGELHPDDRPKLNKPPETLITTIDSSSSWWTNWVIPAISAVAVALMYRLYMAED
UniProt Q96RY5: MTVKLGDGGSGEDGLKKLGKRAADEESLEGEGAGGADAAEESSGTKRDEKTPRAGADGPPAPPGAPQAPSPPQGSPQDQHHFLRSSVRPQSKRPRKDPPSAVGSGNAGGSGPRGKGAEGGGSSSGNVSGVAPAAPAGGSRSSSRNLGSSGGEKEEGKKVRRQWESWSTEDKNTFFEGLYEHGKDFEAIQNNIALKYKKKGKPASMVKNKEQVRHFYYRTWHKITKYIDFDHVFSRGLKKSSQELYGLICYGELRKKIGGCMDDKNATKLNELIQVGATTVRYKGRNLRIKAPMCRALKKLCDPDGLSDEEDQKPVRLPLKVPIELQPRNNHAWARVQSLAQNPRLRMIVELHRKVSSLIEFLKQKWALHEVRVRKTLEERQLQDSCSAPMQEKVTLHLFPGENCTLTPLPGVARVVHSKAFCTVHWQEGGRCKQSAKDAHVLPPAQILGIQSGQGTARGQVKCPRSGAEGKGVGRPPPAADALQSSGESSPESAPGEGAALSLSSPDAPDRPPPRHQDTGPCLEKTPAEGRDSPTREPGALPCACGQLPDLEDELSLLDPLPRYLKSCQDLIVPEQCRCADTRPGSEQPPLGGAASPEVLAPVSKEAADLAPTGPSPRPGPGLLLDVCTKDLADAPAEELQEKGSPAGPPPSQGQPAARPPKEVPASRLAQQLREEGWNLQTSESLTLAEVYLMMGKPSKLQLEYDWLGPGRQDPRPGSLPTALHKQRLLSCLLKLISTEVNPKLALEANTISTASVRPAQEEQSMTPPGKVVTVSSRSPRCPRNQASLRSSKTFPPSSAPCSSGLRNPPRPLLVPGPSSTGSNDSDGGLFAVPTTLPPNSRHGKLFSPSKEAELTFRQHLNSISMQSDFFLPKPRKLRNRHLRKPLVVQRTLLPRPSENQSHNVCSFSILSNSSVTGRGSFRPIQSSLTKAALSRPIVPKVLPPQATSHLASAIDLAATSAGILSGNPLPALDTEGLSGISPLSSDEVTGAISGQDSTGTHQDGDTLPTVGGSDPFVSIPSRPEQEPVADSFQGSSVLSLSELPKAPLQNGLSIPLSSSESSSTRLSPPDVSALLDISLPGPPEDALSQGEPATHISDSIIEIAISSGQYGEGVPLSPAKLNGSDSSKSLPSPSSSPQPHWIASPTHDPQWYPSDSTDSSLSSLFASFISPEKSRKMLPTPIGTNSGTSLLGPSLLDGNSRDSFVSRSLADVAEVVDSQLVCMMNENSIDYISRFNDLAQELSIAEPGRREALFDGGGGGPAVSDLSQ
UniProt P54108: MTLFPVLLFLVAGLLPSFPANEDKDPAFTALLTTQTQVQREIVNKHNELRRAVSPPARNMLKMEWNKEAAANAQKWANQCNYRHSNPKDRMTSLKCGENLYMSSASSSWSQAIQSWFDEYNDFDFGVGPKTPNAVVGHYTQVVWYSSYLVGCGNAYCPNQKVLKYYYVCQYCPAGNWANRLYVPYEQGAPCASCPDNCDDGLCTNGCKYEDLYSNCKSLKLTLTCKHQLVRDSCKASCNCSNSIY
UniProt O95715: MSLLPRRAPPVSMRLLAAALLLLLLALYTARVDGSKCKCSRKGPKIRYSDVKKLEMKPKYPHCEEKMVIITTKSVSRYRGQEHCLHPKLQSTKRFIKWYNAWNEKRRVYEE
UniProt Q8NI51: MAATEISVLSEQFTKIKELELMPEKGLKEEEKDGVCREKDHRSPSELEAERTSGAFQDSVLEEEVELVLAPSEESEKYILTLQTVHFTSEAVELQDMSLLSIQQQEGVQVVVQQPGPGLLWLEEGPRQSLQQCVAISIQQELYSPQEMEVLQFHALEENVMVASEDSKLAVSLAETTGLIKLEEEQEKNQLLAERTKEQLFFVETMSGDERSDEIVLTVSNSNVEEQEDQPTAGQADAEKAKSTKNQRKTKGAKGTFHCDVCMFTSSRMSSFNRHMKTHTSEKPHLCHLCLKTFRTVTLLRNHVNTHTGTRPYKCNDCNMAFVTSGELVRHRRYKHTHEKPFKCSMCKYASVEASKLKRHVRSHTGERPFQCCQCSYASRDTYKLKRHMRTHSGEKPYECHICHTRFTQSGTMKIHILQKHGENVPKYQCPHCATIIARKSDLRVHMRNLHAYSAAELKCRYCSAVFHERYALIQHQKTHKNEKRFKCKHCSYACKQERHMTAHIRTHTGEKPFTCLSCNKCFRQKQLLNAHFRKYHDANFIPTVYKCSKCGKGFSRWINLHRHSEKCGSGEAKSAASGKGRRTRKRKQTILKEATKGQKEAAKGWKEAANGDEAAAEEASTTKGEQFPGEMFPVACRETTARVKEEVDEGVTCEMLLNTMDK

pictilisib = compound: CS(=O)(=O)N1CCN(Cc2cc3nc(-c4cccc5[nH]ncc45)nc(N4CCOCC4)c3s2)CC1 [pictilisib]
Summary of the method: as §1

duvelisib = compound: C[C@H](Nc1ncnc2nc[nH]c12)c1cc2cccc(Cl)c2c(=O)n1-c1ccccc1 [duvelisib]
Summary of the method: as §1

bafetinib = compound: Cc1ccc(NC(=O)c2ccc(CN3CC[C@H](N(C)C)C3)c(C(F)(F)F)c2)cc1Nc1nccc(-c2cncnc2)n1 [bafetinib]
Summary of the method: as §1

dasatinib = compound: Cc1nc(Nc2ncc(C(=O)Nc3c(C)cccc3Cl)s2)cc(N2CCN(CCO)CC2)n1 [dasatinib]
Summary of the method: as §1

[1] = compound: Cn1cc(-c2ccc3c(c2)CCN3C(=O)Cc2cccc(C(F)(F)F)c2)c2c(N)ncnc21
Summary of the method: as §1

[2] = compound: NC(=O)c1cnc(N[C@@H]2CCCC[C@@H]2N)nc1Nc1cccc(-n2nccn2)c1
Summary of the method: as §1

[3] = compound: NC1(c2ccc(-c3nc4ccn5c(=O)[nH]nc5c4cc3-c3ccccc3)cc2)CCC1
Summary of the method: as §1

crizotinib = compound: C[C@@H](Oc1cc(-c2cnn(C3CCNCC3)c2)cnc1N)c1c(Cl)ccc(F)c1Cl [crizotinib]
Summary of the method: as §1

[4] = compound: C[C@H](C1=CC=C(C=C1)C(=O)NC2=C3C=CNC3=NC=C2)N
Summary of the method: as §1

gandotinib = compound: Cc1cc(Nc2cc(CN3CCOCC3)c3nc(C)c(Cc4ccc(Cl)cc4F)n3n2)n[nH]1 [gandotinib]
Summary of the method: as §1

doramapimod = compound: Cc1ccc(-n2nc(C(C)(C)C)cc2NC(=O)Nc2ccc(OCCN3CCOCC3)c3ccccc23)cc1 [doramapimod]
Summary of the method: as §1

[5] = compound: Cc1cccc(CC(=O)N2CCc3c2ccc(-c2cn(C)c4ncnc(N)c24)c3F)n1
Summary of the method: as §1

quisinostat = compound: Cn1cc(CNCC2CCN(c3ncc(C(=O)NO)cn3)CC2)c2ccccc21 [quisinostat]
Summary of the method: as §1

[6] = compound: NC(=O)Nc1cc(-c2cccc(F)c2)sc1C(=O)N[C@H]1CCCNC1
Summary of the method: as §1

tozasertib = compound: Cc1cc(Nc2cc(N3CCN(C)CC3)nc(Sc3ccc(NC(=O)C4CC4)cc3)n2)n[nH]1 [tozasertib]
Summary of the method: as §1

nilotinib = compound: Cc1cn(-c2cc(NC(=O)c3ccc(C)c(Nc4nccc(-c5cccnc5)n4)c3)cc(C(F)(F)F)c2)cn1 [nilotinib]
Summary of the method: as §1

[7] = compound: Cc1nc(Nc2n[nH]c3c2CN(C(=O)N[C@H](CN(C)C)c2ccccc2)C3(C)C)c2sccc2n1
Summary of the method: as §1

[8] = compound: Cc1ncc(-c2ccnc(Nc3ccc(S(C)(=O)=O)cc3)n2)n1C(C)C
Summary of the method: as §1

tipifarnib = compound: Cn1cncc1[C@@](N)(c1ccc(Cl)cc1)c1ccc2c(c1)c(-c1cccc(Cl)c1)cc(=O)n2C [tipifarnib]
Summary of the method: as §1

Measured: log2 fold change

CS (UniProt F8VU34)
inactive: lapatinib -0.352 | pictilisib -0.045 | duvelisib -0.126 | bafetinib 0.016 | dasatinib -0.089 | [1] -0.021 | [2] 0.08 | [3] 0.114

CYBRD1 (UniProt Q53TN4)
inactive: lapatinib -0.04 | pictilisib -0.058 | crizotinib 0.041 | [4] -0.02 | duvelisib -0.08 | gandotinib 0.063 | doramapimod -0.139 | bafetinib -0.066 | [5] 0.034 | dasatinib 0.177 | [1] -0.014 | quisinostat 0 | [6] 0.05 | [2] 0.032 | [3] -0.152

CWC25 (UniProt Q9NXE8)
inactive: lapatinib -0.035 | pictilisib 0.104 | crizotinib 0.225 | [4] -0.039 | gandotinib 0.282 | tozasertib 0.063 | doramapimod 0.536 | bafetinib -0.026 | [5] 0.169 | nilotinib -0.031 | [7] -0.084 | [8] -0.007 | quisinostat -0.137 | tipifarnib -0.124 | [6] 0.086 | [2] 0.006

CRLS1 (UniProt Q9UJA2)
inactive: lapatinib -0.003 | pictilisib -0.107 | crizotinib -0.086 | [4] 0.084 | gandotinib -0.105 | doramapimod -0.062 | bafetinib -0.437 | [5] -0.176 | nilotinib 0.1 | [7] -0.096 | [8] -0.143 | quisinostat -0.122 | tipifarnib -0.01 | [6] 0.066 | [2] -0.018 | [3] -0.067

CRTC1 (UniProt Q6UUV9)
inactive: lapatinib -0.047 | pictilisib 0.006 | crizotinib 0.032 | [4] -0.003 | duvelisib -0.024 | gandotinib -0.005 | tozasertib 0.057 | doramapimod 0.084 | bafetinib 0.092 | [5] 0.062 | dasatinib 0.036 | [1] -0.019 | quisinostat -0.062 | [6] 0.048 | [2] 0.121 | [3] -0.033

CREM isoform 1 (UniProt Q03060)
inactive: lapatinib 0.04 | pictilisib 0.016 | crizotinib 0.005 | [4] 0.004 | duvelisib 0.043 | gandotinib -0.029 | doramapimod 0.061 | bafetinib -0.117 | [5] -0.05 | nilotinib -0.061 | [7] -0.044 | dasatinib -0.125 | [8] 0.054 | [1] 0.067 | quisinostat -0.024 | tipifarnib 0.091 | [6] -0.035 | [2] -0.034

Two neighbouring records already listed, quoted:
CRTC1 (UniProt Q6UUV9)
inactive: lapatinib -0.047 | pictilisib 0.006 | crizotinib 0.032 | [4] -0.003 | duvelisib -0.024 | gandotinib -0.005 | tozasertib 0.057 | doramapimod 0.084 | bafetinib 0.092 | [5] 0.062 | dasatinib 0.036 | [1] -0.019 | quisinostat -0.062 | [6] 0.048 | [2] 0.121 | [3] -0.033

CREM isoform 1 (UniProt Q03060)
inactive: lapatinib 0.04 | pictilisib 0.016 | crizotinib 0.005 | [4] 0.004 | duvelisib 0.043 | gandotinib -0.029 | doramapimod 0.061 | bafetinib -0.117 | [5] -0.05 | nilotinib -0.061 | [7] -0.044 | dasatinib -0.125 | [8] 0.054 | [1] 0.067 | quisinostat -0.024 | tipifarnib 0.091 | [6] -0.035 | [2] -0.034

More entries:

CROCC2 (UniProt H7BZ55)
inactive: lapatinib -0.013 | pictilisib -0.121 | crizotinib -0.077 | duvelisib -0.062 | tozasertib 0.01 | doramapimod 0.041 | bafetinib -0.054 | dasatinib 0.089 | [1] 0 | quisinostat -0.077 | [6] 0.006 | [2] 0.052 | [3] 0.025

CRYM-AS1 (UniProt A6NIL9)
inactive: lapatinib -0.135 | pictilisib -0.107 | crizotinib -0.118 | [4] -0.425 | gandotinib 0.127 | tozasertib -0.032 | doramapimod 0.049 | bafetinib -0.116 | [5] 0.205 | nilotinib 0.168 | [7] -0.092 | [8] -0.115 | quisinostat -0.209 | tipifarnib -0.244 | [6] 0.069 | [2] 0.099 | [3] -0.115

CTSG (UniProt P08311)
inactive: crizotinib 0.068 | [4] -0.546 | duvelisib -0.109 | gandotinib 0.26 | doramapimod -0.015 | [5] 0.207 | nilotinib -0.071 | [7] -0.129 | dasatinib -0.031 | [8] 0 | [1] 0.181 | quisinostat 0.112 | tipifarnib -0.007 | [6] 0.009 | [3] -0.13

CTNNBIP1 (UniProt Q9NSA3)
inactive: duvelisib 0.095 | dasatinib -0.008 | [1] 0.167 | [3] -0.052

CYB5A (UniProt P00167)
inactive: pictilisib 0.048 | crizotinib 0.047 | [4] -0.083 | duvelisib 0.083 | gandotinib 0.107 | tozasertib 0.035 | doramapimod 0 | bafetinib -0.025 | [5] 0.14 | nilotinib 0.004 | [7] 0.031 | dasatinib -0.066 | [8] 0.066 | [1] 0.039 | quisinostat 0.041 | tipifarnib -0.025 | [6] -0.057 | [3] 0.052

CRAMP1 (UniProt Q96RY5)
inactive: duvelisib 0.049 | tozasertib -0.065 | dasatinib 0.025 | [1] -0.193

CRISP3 isoform 3 (UniProt P54108)
inactive: [4] -0.011 | duvelisib -0.632 | gandotinib -0.297 | [5] 0.243 | nilotinib -0.115 | [7] 0.093 | dasatinib -0.221 | [8] -0.041 | [1] 0.226 | tipifarnib -0.14 | [3] 0.889

CXCL14 (UniProt O95715)
inactive: pictilisib -0.083 | tozasertib -0.021 | bafetinib -0.649

CTCFL isoform 7 (UniProt Q8NI51)
inactive: pictilisib -0.01 | crizotinib -0.087 | tozasertib -0.173 | doramapimod -0.148 | bafetinib -0.015 | nilotinib -0.006 | [7] 0.006 | [8] -0.126 | quisinostat 0.044 | tipifarnib 0.226 | [6] -0.02

From the supplement of paper PMC10849652
